Here are results for one molecule from publication PMC4457826.

The chains behind the UniProt entries cited, without tags or fusion partners.
UniProt Q93009: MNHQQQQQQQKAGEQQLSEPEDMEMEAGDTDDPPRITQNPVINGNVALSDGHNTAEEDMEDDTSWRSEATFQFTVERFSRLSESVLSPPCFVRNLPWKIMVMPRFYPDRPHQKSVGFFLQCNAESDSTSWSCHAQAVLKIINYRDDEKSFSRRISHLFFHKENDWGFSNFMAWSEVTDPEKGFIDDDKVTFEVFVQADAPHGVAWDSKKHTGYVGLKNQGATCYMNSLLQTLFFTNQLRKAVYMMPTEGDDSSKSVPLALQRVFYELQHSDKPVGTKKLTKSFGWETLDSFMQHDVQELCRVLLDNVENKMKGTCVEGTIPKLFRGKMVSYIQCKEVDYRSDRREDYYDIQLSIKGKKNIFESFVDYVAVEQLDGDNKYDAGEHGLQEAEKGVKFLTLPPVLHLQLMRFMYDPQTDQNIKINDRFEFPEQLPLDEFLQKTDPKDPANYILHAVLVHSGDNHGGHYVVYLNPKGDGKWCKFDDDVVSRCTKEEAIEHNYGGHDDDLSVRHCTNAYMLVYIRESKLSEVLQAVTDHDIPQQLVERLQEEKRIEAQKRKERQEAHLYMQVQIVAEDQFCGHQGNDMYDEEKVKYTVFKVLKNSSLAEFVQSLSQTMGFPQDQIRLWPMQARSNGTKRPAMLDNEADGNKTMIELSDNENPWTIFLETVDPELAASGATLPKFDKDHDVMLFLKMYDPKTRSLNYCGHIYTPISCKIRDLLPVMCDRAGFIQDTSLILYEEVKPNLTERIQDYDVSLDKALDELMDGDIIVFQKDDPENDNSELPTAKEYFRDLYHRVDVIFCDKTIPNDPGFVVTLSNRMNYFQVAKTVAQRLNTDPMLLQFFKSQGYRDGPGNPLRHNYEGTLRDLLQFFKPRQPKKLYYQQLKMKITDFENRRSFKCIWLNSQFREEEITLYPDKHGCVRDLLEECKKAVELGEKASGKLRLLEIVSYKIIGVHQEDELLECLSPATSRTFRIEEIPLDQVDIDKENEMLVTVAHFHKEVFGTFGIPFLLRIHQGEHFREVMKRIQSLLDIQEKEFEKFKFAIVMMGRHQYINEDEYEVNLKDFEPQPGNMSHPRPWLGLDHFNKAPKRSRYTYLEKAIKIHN

This experiment deals with myc-tagged WT USP7 (human) (UniProt Q93009). Nature of the experiment: co-IP; 293T cells transfected with myc-USP7 (with or without ICP0); RIPA lysate, anti-myc antibody and protein A/G agarose; Western blot for ICP0, GMPS or UHRF1. For orientation: Immunoblotting shows a protein as a band on a membrane.

Results are given in words; binding and its absence hold for the method and conditions named. In cells and extracts the contact can be indirect. Some entries that bind do so weakly or less than the wild type.

B1: endogenous UHRF1 (protein, UniProt Q96T88 1-793)
chain: MWIQVRTMDGRQTHTVDSLSRLTKVEELRRKIQELFHVEPGLQRLFYRGKQMEDGHTLFDYEVRLNDTIQLLVRQSLVLPHSTKERDSELSDTDSGCCLGQSESDKSSTHGEAAAETDSRPADEDMWDETELGLYKVNEYVDARDTNMGAWFEAQVVRVTRKAPSRDEPCSSTSRPALEEDVIYHVKYDDYPENGVVQMNSRDVRARARTIIKWQDLEVGQVVMLNYNPDNPKERGFWYDAEISRKRETRTARELYANVVLGDDSLNDCRIIFVDEVFKIERPGEGSPMVDNPMRRKSGPSCKHCKDDVNRLCRVCACHLCGGRQDPDKQLMCDECDMAFHIYCLDPPLSSVPSEDEWYCPECRNDASEVVLAGERLRESKKKAKMASATSSSQRDWGKGMACVGRTKECTIVPSNHYGPIPGIPVGTMWRFRVQVSESGVHRPHVAGIHGRSNDGAYSLVLAGGYEDDVDHGNFFTYTGSGGRDLSGNKRTAEQSCDQKLTNTNRALALNCFAPINDQEGAEAKDWRSGKPVRVVRNVKGGKNSKYAPAEGNRYDGIYKVVKYWPEKGKSGFLVWRYLLRRDDDEPGPWTKEGKDRIKKLGLTMQYPEGYLEALANREREKENSKREEEEQQEGGFASPRTGKGKWKRKSAGGGPSRAGSPRRTSKKTKVEPYSLTAQQSSLIREDKSNAKLWNEVLASLKDRPASGSPFQLFLSKVEETFQCICCQELVFRPITTVCQHNVCKDCLDRSFRAQVFSCPACRYDLGRSYAMQVNQPLQTVLNQLFPGYGNGR
Turning to B1, the binding entry is recorded as “binds”.
